Data as given in patent EP0329295A1 (THE UPJOHN COMPANY, priority 1988, dated 1989).
Some peptides are written in HELM: one residue between dots, names in brackets for other building blocks, links after the first $.

Assay: general procedure: solution-phase peptide synthesis; diethylphosphoryl cyanide / triethylamine
[1] = late stage modification step, TLC

Substance: H-Pro-Phe-N(Me)His-LVA-Ile-AMP
- crude purity (method not given) [1]: 95-97% pure by TLC

Substance: L-Histidinamide, 1-[[(2-deoxy-L-glucitol-2-yl)amino]carbonyl]-L-prolyl-L-phenylalanyl-N-[2-hydroxy-5-methyl-1-(2-methylpropyl)-4-[[[2-methyl-1-[[(2-pyridinylmethyl)amino]carbonyl]butyl]amino]-carbonyl]hexyl]-N.alpha.-methyl-, N-oxide.
- difficulty met (late stage modification step): Attempted chromatographic purification of this material on silica gel was unsuccessful.

Substance: N-[2,3,4,5-Tetrahydroxypentyl]-Pro-Phe-N[CH3]-His-LVA-Ile-AMP
- final HPLC purity (conjugation step, TLC): 93%

Substance: N-[Glucaminocarbonyl]-Pro-Phe-N[CH3]-His-LVA-Ile-AMP
- final HPLC purity [1]: .96%

Substance: N-[[[2-Hydroxy-1,1-bis(hydroxymethyl)ethyl]-amino]carbonyl]-Pro-Phe-N(Me)His-LVA-Ile-AMP, pyridine N-oxide
- final HPLC purity (late stage modification step, Waters C18 column): 99.36%

Substance: PEPTIDE1{[DGLU-CO].P.F.[NMHis].[LVA].I.[AMP]}$$$$V2.0
- crude purity (method not given) [1]: >95% pure by TLC
